Data as given in PubChem BioAssay AID504784 (Drosophila RNAi Screening Center, 2011).

Screen: 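Genome-wide knock-down for genes giving too much or too little stored lipid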 (primary screen)
Cell system: Drosophila Kc167 embryonic cells
Reagent: long dsRNA against Drosophila genes, about 250 ng dsRNA per well
Timing: 4 days
Treatment: cells fed 400 µM oleic acid bound to BSA
Detection: 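Microscope images give a droplet-to-nucleus area ratio, taken as log and converted to a screen-wide B-score; higher values mean greater lipid storage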
Direction: droplet/nuclear area B-score: higher = more stored lipid (overstorage)
The screen tested about 17,000 reagents; shown is an unselected part of those that have a named target and a result. 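Each column is one replicate's B-score; the combined score over replicates was not deposited, so single values may mislead.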 Reagents against one gene are numbered here. Further read-outs or replicates are left out here.

With knock-down of CG13751, the record shows droplet/nuclear area B-score, replicate 1 = 0.827.
With knock-down of CG9593, the screen gave droplet/nuclear area B-score, replicate 1 = -2.16.
Against Osi11, the values are droplet/nuclear area B-score, replicate 1 = 0.116.
After knock-down of TyrR, the screen gave droplet/nuclear area B-score, replicate 1 = 0.0605.
With knock-down of CG12688 (retired record) #1, the record shows droplet/nuclear area B-score, replicate 1 = 0.703.
Against CG12688 (retired record) #2, the entry reads droplet/nuclear area B-score, replicate 1 = -1.09.
After knock-down of CycC the results were droplet/nuclear area B-score, replicate 1 = -0.162.
After knock-down of Ssl1 the results were droplet/nuclear area B-score, replicate 1 = 0.851.
Against nAChRalpha6 #1, the values are droplet/nuclear area B-score, replicate 1 = -0.514.
Depletion of nAChRalpha6 #2 came out at: droplet/nuclear area B-score, replicate 1 = 0.72.
For CG15047 #1, the values are droplet/nuclear area B-score, replicate 1 = 0.0382.
With knock-down of CG15047 #2, the record shows droplet/nuclear area B-score, replicate 1 = 0.437.
With knock-down of Rab3GAP1 #1, the record shows droplet/nuclear area B-score, replicate 1 = 4.12.
With knock-down of Rab3GAP1 #2 the results were droplet/nuclear area B-score, replicate 1 = 0.685.
For Pcyt2 the deposit lists droplet/nuclear area B-score, replicate 1 = -2.74.
CG32006 gave droplet/nuclear area B-score, replicate 1 = -1.38.
